PubChem BioAssay AID1259308 – NCATS | 2017
Shown is one part, drawn at random, of about 59,000 reagents. In the full data, about 1,510 (2.6%) are marked active. 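Calls use total luciferase alone and ignore viability, so some active siRNAs may act by altering cell number.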 Unmarked entries are inactive. The numbers tell different reagents against one gene apart. Further read-outs or replicates are left out here.

Screen: 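Knock-downs that increase output of a recombinant reporter protein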 (primary screen)
Cells: human HEK293 embryonic kidney cells stably expressing firefly luciferase (HEK-CMV-Luc2-Hygro)
Reagent: single siRNA against human genes, 0.8 pmol siRNA per well
Time to read-out: 72 h
Detection: 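Reporter luminescence and viable-cell signal on separate replicate plates, given as percent of non-targeting control and median/MAD z-scores, plus per-cell luciferase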
Scale: total luciferase, z-score: higher = more reporter protein produced
Active means: 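Active when the median/MAD z-score for overall luciferase is greater than 3; a gene was taken forward for validation with new siRNAs if at least two of its three siRNAs passed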
Meaning of the calls: active = raised luciferase; inactive = no rise

target gene | reagent | total luciferase, z-score
AP3B2 | 1 | -1.31
AP3B2 | 2 | 0.714
AP3B2 | 3 | 0.534
NOX1 | 1 | 0.479
NOX1 | 2 | 0.809
NOX1 | 3 | -0.223
HCG22 | 1 | -0.381
HCG22 | 2 | 1.36
HCG22 | 3 | 1.16
FBXO39 | 1 | 1.71
FBXO39 | 2 | 0.534
FBXO39 | 3 | -0.535
AIDA | 1 | -0.576
AIDA | 2 | 0.699
AIDA | 3 | -0.232
LSR | 1 | 1.71
LSR | 2 | 0.0765
LSR | 3 | 0.897
SMARCB1 | 1 | -1.54
SMARCB1 | 2 | -0.675
SMARCB1 | 3 | 2.34
CFAP74 | 1 | -2.1
CFAP74 | 2 | 0.0997
CFAP74 | 3 | -0.635
CFAP74 | 4 | 0.5
CFAP74 | 5 | -0.214
CFAP74 | 6 | 2.6
AURKA | 1 | -1.58
AURKA | 2 | -0.736
AURKA | 3 | -1.16
PRORSD1P | 1 | 0.0681
PRORSD1P | 2 | -0.448
PRORSD1P | 3 | 0.0788
WDR49 | 1 | -0.161
WDR49 | 2 | 0.209
WDR49 | 3 | 0.33
ZNF594 | 1 | 1.89
ZNF594 | 2 | -0.278
ZNF594 | 3 | -0.437

Entries listed so far whose gene name begins with S or s:
target gene | reagent | total luciferase, z-score
SMARCB1 | 1 | -1.54
SMARCB1 | 2 | -0.675
SMARCB1 | 3 | 2.34
